# Test results: PubChem BioAssay AID540276 (National Center for Advancing Translational Sciences (NCATS), 2011)
# “And” between values parts separate entries of the source, which are not always exact repeats. Equal entries are not always repeated. Among all 300,000 compounds or so, about 5,400 (1.8%) were called active. The inconclusive results got no clear call from the source; some entries with a clear call stand among them for comparison. Calls follow the shape of the full dose curve; tested in HEK293 cells. A potency beside an inconclusive call is a rough fit, not a confirmed value.
# Assay: qHTS for inhibitors of binding or entry into cells for Marburg Virus
# Details: Marburg virus pseudotyped entry inhibition, cell reporter; activity change, negative = inhibition: at 37.8 µM (top of the series) unless noted
# % is scaled to controls: 0 for no effect and ±100 for the full control effect; potency is read from the fitted curve at half-maximal effect.
Compound,Potency,"activity change, negative = inhibition"
O=C(C1CCCN(S(=O)(=O)c2ccccc2)C1)N1CCCCCC1 (stereo not drawn),"inconclusive: 0.794 µM [inhibitor, single point]",–
O=C(Cc1ccccc1)NCC(=O)N1CCN(c2ccccc2)CC1,"inconclusive: 35.5 µM [activator, single point]",–
COc1ccccc1C(=O)Nc1onc2c1CCCC2,"inconclusive: 3.16 µM [activator, partial curve, poor fit]",–
Cc1ccc(C)c(NC(=O)c2cc(-c3ccccc3)nn2-c2ccccc2)c1,active: 11.2 µM,–
Cc1ccc(C)n1-c1ccc(C(=O)Nc2ccccc2)cc1,–,inactive: -20%
CCN(c1cccc(C)c1)S(=O)(=O)c1c(C)[nH]c(=O)[nH]c1=O,–,inactive: 2.17%
CCOC(=O)C1C(=O)C=C(c2cccc(NS(C)(=O)=O)c2)CC1c1ccco1 (stereo not drawn),–,inactive: 2.16%
O=C(O)C1CCCCC1C(=O)NCCc1cccc(Cl)c1 (stereo not drawn),"inconclusive: 3.66 µM [inhibitor, partial curve, poor fit]",–
CC1CCN(S(=O)(=O)c2ccc(NC(=O)CN3CCCCCC3)cc2)CC1,"inconclusive: 35.5 µM [inhibitor, single point]",–
COc1ccc(NC(=O)C2=Cc3ccccc3OC2)cc1,"inconclusive: 2 µM [inhibitor, full curve, poor fit]",–
COc1ccccc1NC(=S)N(Cc1ccccc1)Cc1ccccn1,"inconclusive: 8.91 µM [inhibitor, partial curve, poor fit]",–
COCCn1nnnc1CN(CCc1ccccc1)Cc1cc2cc(OC)ccc2[nH]c1=O,"inconclusive: 29.1 µM [inhibitor, single point]",–
CCOc1ccccc1C(=O)Nc1ccc2nc3c(c(Nc4ccc(OC)c(OC)c4)c2c1)CCCC3,"inconclusive: 7.08 µM [inhibitor, partial curve, poor fit]",–
Cc1cc(C)nc(N2CCCC(C(=O)Nc3ccc(F)cc3)C2)n1 (stereo not drawn),"inconclusive: 35.5 µM [inhibitor, single point]",–
CCOc1cc(Cl)c(NC(=O)c2ccco2)cc1OCC,"inconclusive: 8.91 µM [activator, partial curve]",–
CC/C(=C/c1sc2ccccc2[n+]1CC)SC,"inconclusive: 0.231 µM [activator, full curve, poor fit]",–
O=C(NCC1COc2ccccc2O1)c1cccc(S(=O)(=O)N2CCN(c3ccccc3)CC2)c1 (stereo not drawn),"inconclusive: 11.2 µM [inhibitor, partial curve, poor fit]",–
COc1cccc(C2/C(=C(\O)c3ccc4c(c3)OCCO4)C(=O)C(=O)N2Cc2cccnc2)c1 (stereo not drawn),–,inactive: 3.09% [at 46.1 µM]
Cc1cc(C(c2cc(C)c(N)c(C)c2)c2ccco2)cc(C)c1N,"inconclusive: 0.501 µM [inhibitor, full curve]",–
COc1ccc(/C(N)=N/OC(=O)C2CCC(=O)N2S(=O)(=O)c2ccc(C)cc2)cc1OC (stereo not drawn),–,inactive: 8.25%

Compound,Potency,"activity change, negative = inhibition"
O=C(Nc1cccc(C(=O)Nc2ccc(S(=O)(=O)O)c3cc(S(=O)(=O)O)cc(S(=O)(=O)O)c23)c1)Nc1cccc(C(=O)Nc2ccc(S(=O)(=O)O)c3cc(S(=O)(=O)O)cc(S(=O)(=O)O)c23)c1,"inconclusive: 44.5 nM [inhibitor, full curve, poor fit] and inconclusive: 11.2 µM [inhibitor, partial curve, poor fit]",–
COc1ccc(N2CCN(c3nccs3)CC2)cc1,–,inactive: -13% [at 46.1 µM]
CC(C)n1nccc1N(Cc1ccc(Br)cc1)S(=O)(=O)c1ccccc1,"inconclusive: 10 µM [inhibitor, partial curve, poor fit]",–
NC(=S)N/N=C/c1coc2ccc(Cl)cc2c1=O,"inconclusive: 4.47 µM [activator, full curve, poor fit]",–
CN1CCN(c2ccc(S(=O)(=O)N3CCCCC3)cc2NC(=O)/C=C/c2ccc(Cl)c([N+](=O)[O-])c2)CC1,"inconclusive: 35.5 µM [inhibitor, single point]",–
COc1ccc(N2CCN(c3nc4cc(C)ccc4cc3C=O)CC2)cc1,–,inactive: -19.1% [at 46.1 µM]
Cc1ccc(S(=O)(=O)Nc2cccc3cccnc23)c([N+](=O)[O-])c1,"inconclusive: 25.1 µM [inhibitor, single point]",–
COc1ccc(NC(=O)CN(c2cccc(F)c2)S(C)(=O)=O)cc1OC,"inconclusive: 6.51 µM [inhibitor, single point]",–
COc1ccc(CN(C)Cc2c(O)ccc3cc(Br)ccc23)cc1OC,"inconclusive: 22.4 µM [inhibitor, single point]",–
NC(=O)C1CCN(CC(=O)Nc2cccc(C(=O)Nc3cccc(C(F)(F)F)c3)c2)CC1,–,inactive: -25% [at 46.1 µM]
COc1cccc(CNC(=O)C(Cc2ccccc2)NS(=O)(=O)c2ccc3c(c2)oc(=O)n3C)c1 (stereo not drawn),–,inactive: 15.8% [at 46.1 µM]
CN(C)C(=O)COc1ccc(Br)cc1,"inconclusive: 10 µM [activator, partial curve, poor fit]",–
c1ccc(-c2[nH]ncc2CN2CCN(Cc3ccc4c(c3)OCO4)CC2)cc1,"inconclusive: 6.31 µM [inhibitor, single point]",–
O=C(COC(=O)C1CCN(c2ccc(C(F)(F)F)cn2)CC1)Nc1ccc(Cl)cc1,"inconclusive: 6.31 µM [activator, single point]",–
CCOc1ccc(Nc2oc(-c3cccs3)nc2C#N)cc1,"inconclusive: 29.1 µM [inhibitor, single point]",–
Cc1cc(C)cc(C(=O)NCC(=O)N2CCN(C(c3ccccc3)c3ccccc3)CC2)c1,active: 12.6 µM,–
CCN1CCN(C(=O)CS(=O)(=O)Cc2nc(-c3ccccc3C)oc2C)CC1,–,inactive: 0.309% [at 46.1 µM]
CC(C)(C)c1cc(-c2csc(Nc3ccccc3)[n+]2Cc2ccc(C(=O)O)cc2)cc(C(C)(C)C)c1O,active: 11.2 µM,–
COCCn1nnnc1CN1CCC(O)(c2cccc(C(F)(F)F)c2)CC1,"inconclusive: 3.66 µM [inhibitor, single point]",–
O=C(O)c1ccc(-n2cccc2/C=N/NC(=O)c2cc3cc(Br)ccc3o2)cc1,–,inactive: -11.7% [at 46.1 µM]
CC(C)Nc1nc(NC(C)C)nc(SCC(N)=O)n1,"inconclusive: 7.08 µM [inhibitor, partial curve, poor fit]",–

# Three compounds out of the list, arranged by molecular weight, descending.
Compound,Potency,"activity change, negative = inhibition"
COc1cccc(C2/C(=C(\O)c3ccc4c(c3)OCCO4)C(=O)C(=O)N2Cc2cccnc2)c1 (stereo not drawn),–,inactive: 3.09% [at 46.1 µM]
COCCn1nnnc1CN1CCC(O)(c2cccc(C(F)(F)F)c2)CC1,"inconclusive: 3.66 µM [inhibitor, single point]",–
COc1ccc(N2CCN(c3nccs3)CC2)cc1,–,inactive: -13% [at 46.1 µM]

# (next part)

Compound,Potency,"activity change, negative = inhibition"
O=S(=O)(c1ccccc1)N1CCN(c2nc(-c3cccnc3)nc3ccccc23)CC1,–,inactive: -8.14% [at 46.1 µM]
CCc1ccc(NC(=O)c2[nH]c(C)c(C(C)=O)c2C)cc1,"inconclusive: 3.55 µM [activator, partial curve, poor fit]",–
O=C1CC(N2CCN(Cc3ccc4c(c3)OCO4)CC2)C(=O)N1c1cccc2ccccc12 (stereo not drawn),"inconclusive: 3.16 µM [activator, single point]",–
CNS(=O)(=O)c1cccc2cccnc12,"inconclusive: 4.47 µM [activator, single point]",–
C/C=C/c1ccc(OCCCCN2CCC(C)CC2)c(OC)c1,"inconclusive: 7.08 µM [inhibitor, partial curve, poor fit]",–
COc1cccc(N2CCN(Cc3nc4ccccc4c(=O)[nH]3)CC2)c1,–,inactive: -17% [at 46.1 µM]
Cc1cc(C)c(C(=O)COC(=O)c2cc([N+](=O)[O-])ccc2N2CCOCC2)cc1C,–,inactive: -0.854%
CCOc1ccc(C(=O)c2cn(CC(=O)Nc3ccc(F)c(F)c3)c3cc4c(cc3c2=O)OCCO4)cc1,"inconclusive: 2 µM [inhibitor, full curve, poor fit]",–
COc1ccc(CCNC(=O)CSc2nnc(Cc3cccn3C)n2C)cc1OC,"inconclusive: 11.2 µM [activator, single point]",–
O=C(CSc1nnc(-c2ccc(Cl)s2)o1)N1CCCc2ccccc21,"inconclusive: 1.26 µM [activator, partial curve, poor fit]",–
O=C(c1cc(COc2cccc(C(F)(F)F)c2)on1)N1C[C@H]2CC[C@H]1C2,"inconclusive: 2.82 µM [activator, partial curve, poor fit]",–
CN(C)C(=O)c1nnsc1Sc1ccc(Cl)cc1,"inconclusive: 3.16 µM [activator, single point]",–
Cc1ccc2nc(-c3ccccc3)cc(C(=O)N3CCN(c4ccccc4O)CC3)c2c1,"inconclusive: 25.1 µM [inhibitor, single point]",–
COc1ccc(N(CC(=O)NCCSc2ccccc2)S(=O)(=O)c2ccccc2)c(OC)c1,"inconclusive: 12.6 µM [inhibitor, single point]",–
CC(Sc1nc2ccccc2[nH]1)C(=O)O (stereo not drawn),"inconclusive: 0.82 µM [inhibitor, partial curve, poor fit]",–
COc1cc(/C=C/C(=O)OCC(=O)NCC2CCCCC2)ccc1O,"inconclusive: 0.1 µM [activator, full curve, poor fit]",–
CCn1cc(/C=C2/SC(=S)NC2=O)c(C)n1,"inconclusive: 6.51 µM [inhibitor, partial curve, poor fit]",–
CCOC(=O)CSc1nc2cc3c(cc2cc1CC)OCCO3,"inconclusive: 6.31 µM [inhibitor, single point]",–
Cc1ccc(N2C(=O)CC(N(O)C3CC(=O)N(c4ccc(C)cc4)C3=O)C2=O)cc1 (stereo not drawn),"inconclusive: 0.116 µM [inhibitor, full curve, poor fit]",–
CCN(Cc1ccccc1)Cc1c(O)ccc2oc(C)c(C(=O)Nc3ccccc3C)c12,"inconclusive: 10 µM [inhibitor, partial curve, poor fit]",–
CCN(CC)CCCNC(=O)c1c(O)c2ccccc2n(Cc2ccccc2)c1=O,active: 14.1 µM,–
